# In PMC5433425 (PeerJ, 2017):
# The source gives many values for each of these; only a part stands here.
# Test system: E. coli AG100tet
# Assay: EtBr accumulation by real-time fluorometry
compound,measurement,setting,value
"CC[n+]1c(-c2ccccc2)c2cc(N)ccc2c2ccc(N)cc21 [EtBr, ethidium bromide]",EtBr fluorescence,"EtBr 0.125 µg/ml, cycle 1",1.579
same,EtBr fluorescence,"EtBr 0.125 µg/ml, cycle 2",1.596
same,EtBr fluorescence,"EtBr 0.125 µg/ml, cycle 3",1.591
same,EtBr fluorescence,"EtBr 0.125 µg/ml, cycle 4",1.572
same,EtBr fluorescence,"EtBr 0.125 µg/ml, cycle 5",1.6059
same,EtBr fluorescence,"EtBr 0.125 µg/ml, cycle 6",1.601
same,EtBr fluorescence,"EtBr 0.125 µg/ml, cycle 7",1.639
same,EtBr fluorescence,"EtBr 0.125 µg/ml, cycle 8",1.616
same,EtBr fluorescence,"EtBr 0.125 µg/ml, cycle 9",1.628
same,EtBr fluorescence,"EtBr 0.125 µg/ml, cycle 10",1.597
same,EtBr fluorescence,"EtBr 0.125 µg/ml, cycle 11",1.6576
same,EtBr fluorescence,"EtBr 0.125 µg/ml, cycle 12",1.607
same,EtBr fluorescence,"EtBr 0.125 µg/ml, cycle 13",1.624
same,EtBr fluorescence,"EtBr 0.125 µg/ml, cycle 14",1.6022
same,EtBr fluorescence,"EtBr 0.125 µg/ml, cycle 15",1.628
same,EtBr fluorescence,"EtBr 0.125 µg/ml, cycle 16",1.633
same,EtBr fluorescence,"EtBr 0.125 µg/ml, cycle 17",1.6247
same,EtBr fluorescence,"EtBr 0.125 µg/ml, cycle 18",1.645
same,EtBr fluorescence,"EtBr 0.125 µg/ml, cycle 19",1.649
same,EtBr fluorescence,"EtBr 0.125 µg/ml, cycle 20",1.6211
same,EtBr fluorescence,"EtBr 0.125 µg/ml, cycle 21",1.625
same,EtBr fluorescence,"EtBr 0.125 µg/ml, cycle 22",1.63
same,EtBr fluorescence,"EtBr 0.125 µg/ml, cycle 23",1.629
same,EtBr fluorescence,"EtBr 0.125 µg/ml, cycle 24",1.622
same,EtBr fluorescence,"EtBr 0.125 µg/ml, cycle 25",1.646
same,EtBr fluorescence,"EtBr 0.125 µg/ml, cycle 26",1.698
same,EtBr fluorescence,"EtBr 0.125 µg/ml, cycle 27",1.62
same,EtBr fluorescence,"EtBr 0.125 µg/ml, cycle 28",1.632
same,EtBr fluorescence,"EtBr 0.125 µg/ml, cycle 29",1.639
same,EtBr fluorescence,"EtBr 0.125 µg/ml, cycle 30",1.657
same,EtBr fluorescence,"EtBr 0.5 µg/ml, cycle 1",2.507
same,EtBr fluorescence,"EtBr 0.5 µg/ml, cycle 2",2.634
same,EtBr fluorescence,"EtBr 0.5 µg/ml, cycle 3",2.599
same,EtBr fluorescence,"EtBr 0.5 µg/ml, cycle 6",2.742
same,EtBr fluorescence,"EtBr 0.5 µg/ml, cycle 7",2.721
same,EtBr fluorescence,"EtBr 0.5 µg/ml, cycle 8",2.856
same,EtBr fluorescence,"EtBr 0.5 µg/ml, cycle 9",2.747
same,EtBr fluorescence,"EtBr 0.5 µg/ml, cycle 10",2.808
same,EtBr fluorescence,"EtBr 0.5 µg/ml, cycle 11",2.828
same,EtBr fluorescence,"EtBr 0.5 µg/ml, cycle 12",2.854
same,EtBr fluorescence,"EtBr 0.5 µg/ml, cycle 13",2.8218
same,EtBr fluorescence,"EtBr 0.5 µg/ml, cycle 14",2.805
same,EtBr fluorescence,"EtBr 0.5 µg/ml, cycle 15",2.868
same,EtBr fluorescence,"EtBr 0.5 µg/ml, cycle 16",2.841
same,EtBr fluorescence,"EtBr 0.5 µg/ml, cycle 17",2.779
same,EtBr fluorescence,"EtBr 0.5 µg/ml, cycle 18",2.896
same,EtBr fluorescence,"EtBr 0.5 µg/ml, cycle 19",2.838
same,EtBr fluorescence,"EtBr 0.5 µg/ml, cycle 20",2.938
same,EtBr fluorescence,"EtBr 0.5 µg/ml, cycle 21",2.9
same,EtBr fluorescence,"EtBr 0.5 µg/ml, cycle 22",2.884
same,EtBr fluorescence,"EtBr 0.5 µg/ml, cycle 23",2.888
same,EtBr fluorescence,"EtBr 0.5 µg/ml, cycle 24",2.89
same,EtBr fluorescence,"EtBr 0.5 µg/ml, cycle 25",2.934
same,EtBr fluorescence,"EtBr 0.5 µg/ml, cycle 26",2.927
same,EtBr fluorescence,"EtBr 0.5 µg/ml, cycle 27",2.878
same,EtBr fluorescence,"EtBr 0.5 µg/ml, cycle 28",2.899
same,EtBr fluorescence,"EtBr 0.5 µg/ml, cycle 29",2.928
same,EtBr fluorescence,"EtBr 0.5 µg/ml, cycle 30",2.936
same,EtBr fluorescence,"EtBr 1 µg/ml, cycle 1",4.259
same,EtBr fluorescence,"EtBr 1 µg/ml, cycle 2",4.357
same,EtBr fluorescence,"EtBr 1 µg/ml, cycle 3",4.431
same,EtBr fluorescence,"EtBr 1 µg/ml, cycle 4",4.51
same,EtBr fluorescence,"EtBr 1 µg/ml, cycle 5",4.624
same,EtBr fluorescence,"EtBr 1 µg/ml, cycle 6",4.527
same,EtBr fluorescence,"EtBr 1 µg/ml, cycle 7",4.696
same,EtBr fluorescence,"EtBr 1 µg/ml, cycle 8",4.608
same,EtBr fluorescence,"EtBr 1 µg/ml, cycle 9",4.652
same,EtBr fluorescence,"EtBr 1 µg/ml, cycle 10",4.634
same,EtBr fluorescence,"EtBr 1 µg/ml, cycle 11",4.797
same,EtBr fluorescence,"EtBr 1 µg/ml, cycle 12",4.757
same,EtBr fluorescence,"EtBr 1 µg/ml, cycle 13",4.803
same,EtBr fluorescence,"EtBr 1 µg/ml, cycle 14",4.744
same,EtBr fluorescence,"EtBr 1 µg/ml, cycle 15",4.718
same,EtBr fluorescence,"EtBr 1 µg/ml, cycle 16",4.905
same,EtBr fluorescence,"EtBr 1 µg/ml, cycle 17",4.848
same,EtBr fluorescence,"EtBr 1 µg/ml, cycle 18",4.742
same,EtBr fluorescence,"EtBr 1 µg/ml, cycle 19",4.921
same,EtBr fluorescence,"EtBr 1 µg/ml, cycle 20",4.874
same,EtBr fluorescence,"EtBr 1 µg/ml, cycle 21",4.9036
same,EtBr fluorescence,"EtBr 1 µg/ml, cycle 22",4.896
same,EtBr fluorescence,"EtBr 1 µg/ml, cycle 23",4.921
same,EtBr fluorescence,"EtBr 1 µg/ml, cycle 24",4.951
same,EtBr fluorescence,"EtBr 1 µg/ml, cycle 25",5.054
same,EtBr fluorescence,"EtBr 1 µg/ml, cycle 26",4.968
same,EtBr fluorescence,"EtBr 1 µg/ml, cycle 27",4.962
same,EtBr fluorescence,"EtBr 1 µg/ml, cycle 28",5.012
same,EtBr fluorescence,"EtBr 1 µg/ml, cycle 29",4.975
same,EtBr fluorescence,"EtBr 1 µg/ml, cycle 30",5.133
same,EtBr fluorescence,"EtBr 2 µg/ml, cycle 1",8.337
same,EtBr fluorescence,"EtBr 2 µg/ml, cycle 2",8.495
same,EtBr fluorescence,"EtBr 2 µg/ml, cycle 3",8.83
same,EtBr fluorescence,"EtBr 2 µg/ml, cycle 4",8.842
same,EtBr fluorescence,"EtBr 2 µg/ml, cycle 5",8.984
same,EtBr fluorescence,"EtBr 2 µg/ml, cycle 6",8.849
same,EtBr fluorescence,"EtBr 2 µg/ml, cycle 7",8.931
same,EtBr fluorescence,"EtBr 2 µg/ml, cycle 8",8.985
same,EtBr fluorescence,"EtBr 2 µg/ml, cycle 9",9.166
same,EtBr fluorescence,"EtBr 2 µg/ml, cycle 10",9.117
same,EtBr fluorescence,"EtBr 2 µg/ml, cycle 11",9.27
same,EtBr fluorescence,"EtBr 2 µg/ml, cycle 12",9.263
same,EtBr fluorescence,"EtBr 2 µg/ml, cycle 13",9.311
same,EtBr fluorescence,"EtBr 2 µg/ml, cycle 14",9.331
same,EtBr fluorescence,"EtBr 2 µg/ml, cycle 15",9.332
